Laboratory results reported in PMC11476264.
Results are given in words; binding and its absence hold for the method and conditions named. In cells and extracts the contact can be indirect. Some entries that bind do so weakly or less than the wild type. Sequences can lack the tags named with a protein.

T1: His-tagged FBXO11 protein (UniProt Q86XK2)
T1 sequence: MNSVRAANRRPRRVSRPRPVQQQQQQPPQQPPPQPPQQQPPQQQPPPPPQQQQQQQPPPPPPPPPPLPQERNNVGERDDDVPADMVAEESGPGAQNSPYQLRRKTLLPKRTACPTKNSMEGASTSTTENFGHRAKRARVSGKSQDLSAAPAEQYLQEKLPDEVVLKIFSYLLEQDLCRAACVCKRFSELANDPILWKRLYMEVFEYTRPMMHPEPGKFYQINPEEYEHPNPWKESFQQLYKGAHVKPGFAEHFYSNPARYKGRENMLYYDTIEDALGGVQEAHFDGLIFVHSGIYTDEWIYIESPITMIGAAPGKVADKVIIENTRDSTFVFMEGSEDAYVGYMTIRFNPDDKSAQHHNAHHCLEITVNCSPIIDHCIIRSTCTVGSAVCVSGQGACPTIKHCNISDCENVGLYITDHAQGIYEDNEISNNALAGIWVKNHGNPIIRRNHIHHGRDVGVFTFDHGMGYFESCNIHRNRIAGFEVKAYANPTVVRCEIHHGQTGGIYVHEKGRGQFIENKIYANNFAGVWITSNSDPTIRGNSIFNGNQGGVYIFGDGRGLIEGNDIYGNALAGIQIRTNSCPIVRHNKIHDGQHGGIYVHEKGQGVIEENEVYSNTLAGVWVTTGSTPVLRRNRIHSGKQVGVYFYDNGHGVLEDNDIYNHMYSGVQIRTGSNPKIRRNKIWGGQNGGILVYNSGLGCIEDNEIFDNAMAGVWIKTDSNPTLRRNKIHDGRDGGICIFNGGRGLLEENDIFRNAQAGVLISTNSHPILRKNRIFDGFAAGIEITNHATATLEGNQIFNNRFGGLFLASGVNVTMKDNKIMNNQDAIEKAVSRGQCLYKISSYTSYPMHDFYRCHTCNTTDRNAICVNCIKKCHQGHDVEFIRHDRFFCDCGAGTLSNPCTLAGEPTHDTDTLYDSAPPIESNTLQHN

T2: Myc-tagged FBXO11 (UniProt Q86XK2)
T2 sequence: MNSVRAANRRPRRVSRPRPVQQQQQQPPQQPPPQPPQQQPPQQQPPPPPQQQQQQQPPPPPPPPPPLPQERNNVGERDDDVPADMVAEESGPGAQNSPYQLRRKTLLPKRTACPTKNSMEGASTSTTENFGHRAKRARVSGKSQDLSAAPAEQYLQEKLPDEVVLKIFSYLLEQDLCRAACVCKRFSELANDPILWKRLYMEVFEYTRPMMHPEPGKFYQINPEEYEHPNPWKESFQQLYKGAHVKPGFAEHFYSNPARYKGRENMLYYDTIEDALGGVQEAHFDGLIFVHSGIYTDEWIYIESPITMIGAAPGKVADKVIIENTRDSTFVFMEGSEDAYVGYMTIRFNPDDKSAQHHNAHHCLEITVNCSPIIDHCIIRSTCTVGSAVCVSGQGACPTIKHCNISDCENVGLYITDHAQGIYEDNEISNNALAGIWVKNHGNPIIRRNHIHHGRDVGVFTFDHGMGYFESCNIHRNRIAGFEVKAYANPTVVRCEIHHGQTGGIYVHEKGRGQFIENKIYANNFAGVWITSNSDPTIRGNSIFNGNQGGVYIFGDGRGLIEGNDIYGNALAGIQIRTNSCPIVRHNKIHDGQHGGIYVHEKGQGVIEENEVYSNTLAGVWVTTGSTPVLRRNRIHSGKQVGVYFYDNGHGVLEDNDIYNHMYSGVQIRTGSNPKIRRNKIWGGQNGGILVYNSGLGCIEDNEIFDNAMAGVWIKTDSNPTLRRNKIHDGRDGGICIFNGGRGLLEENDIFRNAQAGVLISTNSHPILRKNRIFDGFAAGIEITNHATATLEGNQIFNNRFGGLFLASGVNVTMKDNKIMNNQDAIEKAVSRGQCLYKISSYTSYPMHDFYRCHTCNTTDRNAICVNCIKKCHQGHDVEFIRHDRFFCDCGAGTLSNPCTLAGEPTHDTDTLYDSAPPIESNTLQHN

T3: His-tagged ZEB1 CZF domain truncated protein (UniProt P37275)
T3 sequence: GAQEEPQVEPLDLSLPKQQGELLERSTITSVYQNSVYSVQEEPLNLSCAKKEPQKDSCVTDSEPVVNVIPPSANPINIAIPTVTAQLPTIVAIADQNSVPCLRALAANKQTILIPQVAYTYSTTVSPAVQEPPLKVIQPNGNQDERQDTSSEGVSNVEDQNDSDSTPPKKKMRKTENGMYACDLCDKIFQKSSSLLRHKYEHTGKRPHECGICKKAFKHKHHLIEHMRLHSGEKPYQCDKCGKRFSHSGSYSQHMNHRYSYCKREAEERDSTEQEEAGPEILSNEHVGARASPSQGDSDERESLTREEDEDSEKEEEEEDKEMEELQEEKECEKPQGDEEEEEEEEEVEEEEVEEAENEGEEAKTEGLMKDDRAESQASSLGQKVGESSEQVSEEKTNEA

T4: Flag-tagged ZEB1 (UniProt P37275)
T4 sequence: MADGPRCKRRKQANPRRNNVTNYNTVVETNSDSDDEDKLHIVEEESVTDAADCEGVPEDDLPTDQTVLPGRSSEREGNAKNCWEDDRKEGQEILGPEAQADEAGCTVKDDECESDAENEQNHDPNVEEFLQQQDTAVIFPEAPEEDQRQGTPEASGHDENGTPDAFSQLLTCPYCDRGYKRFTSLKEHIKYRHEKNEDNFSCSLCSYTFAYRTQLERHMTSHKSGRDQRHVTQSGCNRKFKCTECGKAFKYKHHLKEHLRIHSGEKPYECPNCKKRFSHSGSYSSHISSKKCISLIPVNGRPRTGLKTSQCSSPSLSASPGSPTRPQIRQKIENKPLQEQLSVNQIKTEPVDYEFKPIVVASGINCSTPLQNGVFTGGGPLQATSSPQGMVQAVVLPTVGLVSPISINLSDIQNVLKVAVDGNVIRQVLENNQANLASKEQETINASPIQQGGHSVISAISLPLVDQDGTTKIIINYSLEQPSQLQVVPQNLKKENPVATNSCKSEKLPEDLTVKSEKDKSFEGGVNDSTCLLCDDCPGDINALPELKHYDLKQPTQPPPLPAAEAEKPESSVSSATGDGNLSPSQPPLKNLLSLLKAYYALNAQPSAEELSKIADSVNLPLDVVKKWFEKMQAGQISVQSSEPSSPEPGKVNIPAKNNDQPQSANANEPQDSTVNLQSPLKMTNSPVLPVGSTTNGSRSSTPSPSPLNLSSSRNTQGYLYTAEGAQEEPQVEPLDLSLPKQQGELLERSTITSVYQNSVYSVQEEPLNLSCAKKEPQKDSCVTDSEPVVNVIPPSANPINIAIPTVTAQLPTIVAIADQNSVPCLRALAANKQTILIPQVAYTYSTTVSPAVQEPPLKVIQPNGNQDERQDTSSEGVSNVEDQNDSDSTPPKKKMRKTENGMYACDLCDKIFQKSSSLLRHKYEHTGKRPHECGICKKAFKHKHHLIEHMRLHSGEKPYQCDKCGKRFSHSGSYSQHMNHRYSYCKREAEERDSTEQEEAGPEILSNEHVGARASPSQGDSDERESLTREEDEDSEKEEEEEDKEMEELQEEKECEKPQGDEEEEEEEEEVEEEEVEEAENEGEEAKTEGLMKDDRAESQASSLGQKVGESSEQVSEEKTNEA


Assays:
[1] = target: T1, His-tagged FBXO11 protein; assay: pull-down; His-tagged FBXO11 held on Ni-NTA beads, incubated with sonicated lysate of HEK293T cells transfected with ZEB1-Flag (50 mM NaH2PO4 pH 8, 300 mM NaCl, 10 mM imidazole); Western blot; only the target purified
Myc-tagged FBXO11 = target: T2, Myc-tagged FBXO11; assay: co-IP; HEK293T co-transfected with Myc-tagged FBXO11 and Flag-tagged ZEB1; 10 μM MG132 for 6 h; RIPA lysate; immunoprecipitation with anti-Myc or anti-Flag antibody and protein A/G agarose at 4 °C; blotted with anti-ZEB1 and anti-FBXO11
[2] = target: T3, His-tagged ZEB1 CZF domain truncated protein; assay: pull-down; His-tagged ZEB1 truncated proteins held on Ni-NTA beads, incubated with sonicated lysate of HEK293T cells transfected with FBXO11-Myc (50 mM NaH2PO4 pH 8, 300 mM NaCl, 10 mM imidazole); Western blot; only the target purified
Flag-tagged ZEB1 = target: T4, Flag-tagged ZEB1; assay: co-IP; HEK293T co-transfected with Myc-tagged FBXO11 and Flag-tagged ZEB1; 10 μM MG132 for 6 h; RIPA lysate; immunoprecipitation with anti-Myc or anti-Flag antibody and protein A/G agarose at 4 °C; blotted with anti-ZEB1 and anti-FBXO11

binding [1] | binding (Myc-tagged FBXO11) | binding [2] | binding (Flag-tagged ZEB1) | Binder
binds | binds | – | – | Flag-tagged ZEB1 (protein, UniProt P37275 1-1124) MADGPRCKRRKQANPRRNNVTNYNTVVETNSDSDDEDKLHIVEEESVTDAADCEGVPEDDLPTDQTVLPGRSSEREGNAKNCWEDDRKEGQEILGPEAQADEAGCTVKDDECESDAENEQNHDPNVEEFLQQQDTAVIFPEAPEEDQRQGTPEASGHDENGTPDAFSQLLTCPYCDRGYKRFTSLKEHIKYRHEKNEDNFSCSLCSYTFAYRTQLERHMTSHKSGRDQRHVTQSGCNRKFKCTECGKAFKYKHHLKEHLRIHSGEKPYECPNCKKRFSHSGSYSSHISSKKCISLIPVNGRPRTGLKTSQCSSPSLSASPGSPTRPQIRQKIENKPLQEQLSVNQIKTEPVDYEFKPIVVASGINCSTPLQNGVFTGGGPLQATSSPQGMVQAVVLPTVGLVSPISINLSDIQNVLKVAVDGNVIRQVLENNQANLASKEQETINASPIQQGGHSVISAISLPLVDQDGTTKIIINYSLEQPSQLQVVPQNLKKENPVATNSCKSEKLPEDLTVKSEKDKSFEGGVNDSTCLLCDDCPGDINALPELKHYDLKQPTQPPPLPAAEAEKPESSVSSATGDGNLSPSQPPLKNLLSLLKAYYALNAQPSAEELSKIADSVNLPLDVVKKWFEKMQAGQISVQSSEPSSPEPGKVNIPAKNNDQPQSANANEPQDSTVNLQSPLKMTNSPVLPVGSTTNGSRSSTPSPSPLNLSSSRNTQGYLYTAEGAQEEPQVEPLDLSLPKQQGELLERSTITSVYQNSVYSVQEEPLNLSCAKKEPQKDSCVTDSEPVVNVIPPSANPINIAIPTVTAQLPTIVAIADQNSVPCLRALAANKQTILIPQVAYTYSTTVSPAVQEPPLKVIQPNGNQDERQDTSSEGVSNVEDQNDSDSTPPKKKMRKTENGMYACDLCDKIFQKSSSLLRHKYEHTGKRPHECGICKKAFKHKHHLIEHMRLHSGEKPYQCDKCGKRFSHSGSYSQHMNHRYSYCKREAEERDSTEQEEAGPEILSNEHVGARASPSQGDSDERESLTREEDEDSEKEEEEEDKEMEELQEEKECEKPQGDEEEEEEEEEVEEEEVEEAENEGEEAKTEGLMKDDRAESQASSLGQKVGESSEQVSEEKTNEA
– | – | binds | binds | Myc-tagged FBXO11 (protein, UniProt Q86XK2 1-927) MNSVRAANRRPRRVSRPRPVQQQQQQPPQQPPPQPPQQQPPQQQPPPPPQQQQQQQPPPPPPPPPPLPQERNNVGERDDDVPADMVAEESGPGAQNSPYQLRRKTLLPKRTACPTKNSMEGASTSTTENFGHRAKRARVSGKSQDLSAAPAEQYLQEKLPDEVVLKIFSYLLEQDLCRAACVCKRFSELANDPILWKRLYMEVFEYTRPMMHPEPGKFYQINPEEYEHPNPWKESFQQLYKGAHVKPGFAEHFYSNPARYKGRENMLYYDTIEDALGGVQEAHFDGLIFVHSGIYTDEWIYIESPITMIGAAPGKVADKVIIENTRDSTFVFMEGSEDAYVGYMTIRFNPDDKSAQHHNAHHCLEITVNCSPIIDHCIIRSTCTVGSAVCVSGQGACPTIKHCNISDCENVGLYITDHAQGIYEDNEISNNALAGIWVKNHGNPIIRRNHIHHGRDVGVFTFDHGMGYFESCNIHRNRIAGFEVKAYANPTVVRCEIHHGQTGGIYVHEKGRGQFIENKIYANNFAGVWITSNSDPTIRGNSIFNGNQGGVYIFGDGRGLIEGNDIYGNALAGIQIRTNSCPIVRHNKIHDGQHGGIYVHEKGQGVIEENEVYSNTLAGVWVTTGSTPVLRRNRIHSGKQVGVYFYDNGHGVLEDNDIYNHMYSGVQIRTGSNPKIRRNKIWGGQNGGILVYNSGLGCIEDNEIFDNAMAGVWIKTDSNPTLRRNKIHDGRDGGICIFNGGRGLLEENDIFRNAQAGVLISTNSHPILRKNRIFDGFAAGIEITNHATATLEGNQIFNNRFGGLFLASGVNVTMKDNKIMNNQDAIEKAVSRGQCLYKISSYTSYPMHDFYRCHTCNTTDRNAICVNCIKKCHQGHDVEFIRHDRFFCDCGAGTLSNPCTLAGEPTHDTDTLYDSAPPIESNTLQHN
